In US20070275887A1, “Method of Inhibiting Secretase Activity” (priority 2003, published 2007):
Results are given in words; binding and its absence hold for the method and conditions named. In cells and extracts the contact can be indirect. Some entries that bind do so weakly or less than the wild type.

The chains behind the UniProt entries cited, without tags or fusion partners. Where a name states a change or a piece, a line headed by the entry shows the natural chain unless it says otherwise.
UniProt Q86TM6: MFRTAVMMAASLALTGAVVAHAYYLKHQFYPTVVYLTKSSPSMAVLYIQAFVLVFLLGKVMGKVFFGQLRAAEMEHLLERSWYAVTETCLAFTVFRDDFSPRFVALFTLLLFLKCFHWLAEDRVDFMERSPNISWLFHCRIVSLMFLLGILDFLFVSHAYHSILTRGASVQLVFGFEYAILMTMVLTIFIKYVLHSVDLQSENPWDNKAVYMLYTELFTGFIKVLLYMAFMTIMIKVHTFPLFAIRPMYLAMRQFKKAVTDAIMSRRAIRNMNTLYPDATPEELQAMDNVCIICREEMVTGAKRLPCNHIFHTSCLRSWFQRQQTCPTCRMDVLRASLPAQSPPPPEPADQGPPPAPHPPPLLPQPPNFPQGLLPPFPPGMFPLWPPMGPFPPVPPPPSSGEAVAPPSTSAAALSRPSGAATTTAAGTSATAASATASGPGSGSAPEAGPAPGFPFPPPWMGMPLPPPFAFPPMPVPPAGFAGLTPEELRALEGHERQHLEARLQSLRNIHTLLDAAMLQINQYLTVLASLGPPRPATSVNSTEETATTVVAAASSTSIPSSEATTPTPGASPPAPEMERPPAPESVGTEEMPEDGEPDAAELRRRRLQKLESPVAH

Biological target: Flag-Syno dTM fusion protein (human) (UniProt Q86TM6)
Test: GST pull-down assay with fragments

Which binding does the source give for GYTPYGWLQLSWFQQIYARQYYMQYLAATAASGAFVPPPS [Herp amino acid sequence Nos. 161-200] here?
The binding was “binds”.
